These are yes or no findings as the source states them, for the method shown. Some binding calls cover weakened binding; strength is not graded here. Where a sequence is shown, tags or fusion partners need not be part of it.
Experiments:
[1] = target: T1, Gnd1-V5 (6-phosphogluconate dehydrogenase) (S. cerevisiae) (UniProt P38720); assay: two-dimensional SDS-PAGE
T1 sequence: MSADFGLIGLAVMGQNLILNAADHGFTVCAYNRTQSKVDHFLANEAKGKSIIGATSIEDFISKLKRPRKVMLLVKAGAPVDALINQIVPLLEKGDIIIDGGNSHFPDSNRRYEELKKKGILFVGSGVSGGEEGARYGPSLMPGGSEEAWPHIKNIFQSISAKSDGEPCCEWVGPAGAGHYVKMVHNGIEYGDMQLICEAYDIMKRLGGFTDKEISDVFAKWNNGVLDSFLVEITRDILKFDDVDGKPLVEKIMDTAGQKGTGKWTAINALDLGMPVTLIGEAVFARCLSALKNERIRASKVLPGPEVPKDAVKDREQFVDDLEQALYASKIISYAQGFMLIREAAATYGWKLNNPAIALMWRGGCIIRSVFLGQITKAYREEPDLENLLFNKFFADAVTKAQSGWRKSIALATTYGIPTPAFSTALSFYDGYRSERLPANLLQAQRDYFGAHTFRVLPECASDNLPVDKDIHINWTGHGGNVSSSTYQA

[2] = target: T2, Cdc19-V5 (pyruvate kinase) (S. cerevisiae) (UniProt P00549); assay: two-dimensional SDS-PAGE
T2 sequence: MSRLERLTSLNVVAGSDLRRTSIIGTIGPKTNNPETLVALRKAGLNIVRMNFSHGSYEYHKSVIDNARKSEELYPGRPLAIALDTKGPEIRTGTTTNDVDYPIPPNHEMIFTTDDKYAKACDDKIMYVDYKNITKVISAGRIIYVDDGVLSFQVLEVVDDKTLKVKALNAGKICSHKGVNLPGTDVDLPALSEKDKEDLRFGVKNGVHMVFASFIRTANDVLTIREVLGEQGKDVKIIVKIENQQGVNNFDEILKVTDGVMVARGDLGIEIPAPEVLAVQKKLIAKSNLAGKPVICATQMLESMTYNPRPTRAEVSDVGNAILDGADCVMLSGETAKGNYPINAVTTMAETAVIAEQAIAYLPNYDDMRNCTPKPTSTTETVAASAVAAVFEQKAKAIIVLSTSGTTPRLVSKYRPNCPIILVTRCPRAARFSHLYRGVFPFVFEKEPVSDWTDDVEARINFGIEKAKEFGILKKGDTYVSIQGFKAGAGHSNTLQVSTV

binding [1]: binds
binding [2]: binds
B1: Tsa1^C171S-HA (resolving cysteine mutant) (protein, UniProt P34760 1-196)
chain: MVAQVQKQAPTFKKTAVVDGVFDEVSLDKYKGKYVVLAFIPLAFTFVCPTEIIAFSEAAKKFEEQGAQVLFASTDSEYSLLAWTNIPRKEGGLGPINIPLLADTNHSLSRDYGVLIEEEGVALRGLFIIDPKGVIRHITINDLPVGRNVDEALRLVEAFQWTDKNGTVLPSNWTPGAATIKPTVEDSKEYFEAANK
